Source: PubChem BioAssay AID1347076 (National Center for Advancing Translational Sciences (NCATS), 2019)
The campaign covered roughly 400,000 compounds. About 13,000 (3.2%) were called active. The inconclusive results got no clear call from the source; some entries with a clear call stand among them for comparison. Calls come from the whole dose curve; as a rule, active = well fitted cell-killing curve with a large enough effect; inconclusive = small, poorly fitted or top-dose-only effect, or effect the other way; inactive = flat fitted curve, though single readings scatter. Potencies beside an inconclusive call are fits to weak or partial responses and may not hold up. Where a structure was tested more than once in an assay, its records may differ in their call.
% is set by controls: 0 for no effect and ±100 for the full control effect; potency is the fitted concentration of half-maximal effect.

Assay: qHTS assay for MDR1-selective chemotherapeutics: Primary screen using the drug-selected MDR subline cells KB-V1; note: nearly all actives have a fitted effect of over 60% in size
Settings: KB-V1 MDR cells viability, CellTiter-Glo, 72 h; activity change, negative = cytotoxicity: at 46.1 µM (top of the series)
Outline: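 KB-V1, DMEM (no phenol red) + 10% FBS; cpd pin-transferred, titration series; 72 h, 37 degrees C; CellTiter-Glo, luminescence. Data normalized, curve-fit.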
With `Cc1nn2c(N3CCOCC3)c3c(nc2c1-c1ccccc1)CCCC3` the Potency was inconclusive: 29.1 µM [cytotoxic, single point]. With `Cc1nc2ccc(NC(=O)NCc3ccco3)cc2s1` the Potency was inconclusive: 10.3 µM [cytotoxic, partial curve]. With `CN1N/C(=C\c2ccccc2)N=C2C(=O)N(C)C(=O)N=C21` the “activity change, negative = cytotoxicity” value was inactive: -12.6%. For `CN(Cc1nc2ccccc2c(=O)[nH]1)C(=O)c1cccc(S(=O)(=O)N2CCc3ccccc32)c1`, the Potency was active: 16.4 µM. In the case of `COc1ccc(Cn2nnnc2C(c2ccccn2)N2CCN(c3cc(Cl)ccc3C)CC2)cc1` (stereo not given), the Potency was active: 13 µM. With `CCCc1nnc(NC(=O)CN2C(=O)c3ccccc3C2=O)s1` the “activity change, negative = cytotoxicity” value was inactive: 0%. For `Cc1onc(NC(=O)c2ccc(Cl)cc2Cl)c1Br`, the Potency was inconclusive: 20.6 µM [rising, single point]. For `CCOC(=O)CNC(=S)N(Cc1ccccc1)Cc1cccnc1`, the Potency was inconclusive: 16.4 µM [cytotoxic, partial curve]. In the case of `O=C(NCCCN1CCOCC1)C(C(=O)c1ccccc1)n1ccccc1=O` (stereo not given), the Potency was inconclusive: 8.2 µM [rising, partial curve, poor fit]. With `CC1CCN(C(=O)CSc2nc3ccccc3c(=O)n2Cc2ccc3c(c2)OCO3)CC1` the Potency was active: 4.61 µM. With `CCN1CCc2c(sc(NC(=O)c3ccc(S(=O)(=O)N(CCOC)CCOC)cc3)c2C(N)=O)C1` the “activity change, negative = cytotoxicity” value was inactive: 0%. With `COc1cccc(-n2nnc3c(=O)n(Cc4ccc(C)cc4)cnc32)c1` the Potency was inconclusive: 29.1 µM [cytotoxic, single point]. For `CCSc1ccccc1C(=O)Nc1nc2ccccc2c(=O)[nH]1`, the Potency was active: 18.4 µM. In the case of `Cc1ccc(S(=O)(=O)C[C@@H]2OC[C@H](C(C)C)N2S(=O)(=O)c2ccc(C)cc2)cc1`, the Potency was inconclusive: 4.61 µM [cytotoxic, partial curve]. With `CC(C)C[C@@H](CN1CCC[C@@H]1CN1C(=O)C(=O)NC[C@@H]1Cc1ccccc1)N1C[C@H](Cc2ccc(O)cc2)N(CCc2ccccc2)C(=O)C1=O` the “activity change, negative = cytotoxicity” value was inactive: -7.52%. In the case of `CCOCCCn1c(SCC(=O)Nc2cc(C)ccc2C)nc2c(oc3ccccc32)c1=O`, the “activity change, negative = cytotoxicity” value was inactive: 0%. In the case of `CC(NC(=O)CN1C(=O)COc2ccc(S(=O)(=O)N3CCCCCC3)cc21)c1ccccc1` (stereo not given), the “activity change, negative = cytotoxicity” value was inactive: -0.849%. For `Fc1ccc2nc(Nc3nc4c(s3)CCCC4)sc2c1`, the Potency was inconclusive: 18.4 µM [cytotoxic, single point]. With `O=C(c1sccc1Cl)N1CCN(Cc2ccc3c(c2)OCO3)CC1` the Potency was inconclusive: 18.4 µM [cytotoxic, single point]. With `CCn1c(CSc2ncccn2)nnc1SCC(=O)N1CCCCC1` the Potency was inconclusive: 16.4 µM [rising, single point]. For `O=C(O/N=C/C1=C(Cl)c2ccccc2CC1)c1ccc(F)cc1`, the Potency was inconclusive: 23.1 µM [cytotoxic, single point]. With `COc1ccc(C(=O)Nc2ccccc2C(=O)NCc2ccco2)cc1OC` the Potency was inconclusive: 14.6 µM [cytotoxic, partial curve, poor fit]. In the case of `Cc1ccc(OCc2ccc(C(=O)Nc3nc4ccccc4n3Cc3ccccc3)o2)c([N+](=O)[O-])c1`, the Potency was inconclusive: 7.31 µM [cytotoxic, partial curve]. With `CNc1nccc(-c2ccc(Cl)cc2)c1C#N` the Potency was active: 8.2 µM. For `O=C(C[n+]1cccc(Br)c1)c1cccs1`, the Potency was inconclusive: 20.6 µM [rising, single point]. With `O=C(NCCCl)Nc1ccccc1OCCOc1ccccc1NC(=O)NCCCl` the “activity change, negative = cytotoxicity” value was inactive: -28.6%. With `CCCc1c(C)nc(N2CCN(c3ccccc3OC)CC2)[nH]c1=O` the Potency was inconclusive: 18.4 µM [cytotoxic, single point]. In the case of `CCOC(=O)C1CCCN(c2nc3ccccc3nc2C(C#N)C(=O)NCc2ccccc2)C1` (stereo not given), the Potency was inconclusive: 20.6 µM [cytotoxic, single point]. For `COc1ccccc1CCNC(=O)C(=O)Nc1cc2c3c(c1)CC(=O)N3CCC2`, the Potency was inconclusive: 7.31 µM [cytotoxic, partial curve, poor fit]. For `O=C(O)CCCN1C(=O)/C(=C/c2cn(-c3ccccc3)nc2-c2cccs2)SC1=S`, the Potency was inconclusive: 29.1 µM [cytotoxic, partial curve, poor fit]. In the case of `O=C(CC1C(=O)NCCN1Cc1ccccc1)NCCC1=CCCCC1` (stereo not given), the Potency was inconclusive: 2.91 µM [rising, full curve, poor fit]. For `Cc1ccc(CNC(=O)c2ccccc2SCC(=O)NCC2CCCCC2)cc1`, the Potency was inconclusive: 9.2 µM [cytotoxic, partial curve]. With `c1ccc2sc(NC3=NCN(Cc4ccc5c(c4)OCO5)CN3)nc2c1` the Potency was inconclusive: 16.4 µM [cytotoxic, partial curve]. For `Cn1cc(SCC(=O)NCc2ccc(F)cc2)c2ccccc21`, the Potency was inconclusive: 16.4 µM [cytotoxic, single point]. With `Cc1ccc(Cl)cc1N1CCN(CCCNC(=O)Cn2ncc3c([nH]c4ccccc43)c2=O)CC1` the “activity change, negative = cytotoxicity” value was inactive: 6.2%. For `Cc1ccc(C)c(NC(=O)CN(C)S(=O)(=O)c2cccc3cccnc23)c1`, the Potency was inconclusive: 14.6 µM [cytotoxic, single point]. With `Cc1ccc(C)n1-c1ccc(-c2nnc3n2CCCCC3)s1` the Potency was inconclusive: 20.6 µM [cytotoxic, partial curve]. In the case of `O=C(COC(=O)C1CC(O)CN1C(=O)Oc1ccccc1)c1ccc(Br)cc1` (stereo not given), the Potency was inconclusive: 8.2 µM [rising, partial curve]. In the case of `CC1CCc2c(sc(NC(=O)CSc3nnc(-c4ccccc4)o3)c2C#N)C1` (stereo not given), the Potency was inconclusive: 2.31 µM [cytotoxic, full curve]. With `Cc1ccc(C)c(NC(=O)CSc2nc(-c3ccccc3)c(C#N)c(=O)[nH]2)c1` the Potency was inconclusive: 4.61 µM [rising, full curve, poor fit]. In the case of `COc1ccccc1N1CCN(C(CNS(=O)(=O)c2ccc(C)cc2)c2cccnc2)CC1` (stereo not given), the Potency was inconclusive: 29.1 µM [cytotoxic, single point]. For `O=C(CSc1ccccc1F)Nc1ccc2c(c1)OCO2`, the “activity change, negative = cytotoxicity” value was inactive: 2.36%. With `COC(=O)c1cnc(Oc2ccc(NC(=O)NC(=O)c3c(F)cccc3Cl)cc2)cc1C(F)(F)F` the Potency was inconclusive: 14.6 µM [cytotoxic, partial curve]. In the case of `Cc1cccc2sc(NC(=O)C3CCN(S(=O)(=O)c4cc([N+](=O)[O-])ccc4Cl)CC3)nc12`, the Potency was inconclusive: 7.31 µM [cytotoxic, partial curve, poor fit]. In the case of `COc1ccc(Nc2ncnc3c2cnn3Cc2ccccc2)cc1OC`, the Potency was active: 18.4 µM. For `O=C1c2ccccc2C(=O)C1c1cc2ccccc2cn1`, the “activity change, negative = cytotoxicity” value was inactive: 0.732%. With `Cc1ccc(OCc2cc(C(=O)N(C)Cc3cnn(-c4ccccc4C)c3)no2)cn1` the Potency was inconclusive: 7.31 µM [cytotoxic, partial curve]. In the case of `Cc1nn(-c2ccccc2)c(C)c1NC(=O)COC(=O)c1ccccc1OC(F)F`, the “activity change, negative = cytotoxicity” value was inactive: 17.6%. In the case of `CC1CCC(NC(=O)CNC(=O)c2cccs2)CC1` (stereo not given), the Potency was inconclusive: 2.91 µM [cytotoxic, partial curve, poor fit]. For `CCOC(=O)c1c(-c2ccc(C)o2)csc1NC(=O)CN1CCC(C(N)=O)CC1`, the “activity change, negative = cytotoxicity” value was inactive: -18.6%. With `NC(=O)C1CCN(C(=O)C2CCN(S(=O)(=O)c3ccccc3)CC2)CC1` the Potency was inconclusive: 10.3 µM [rising, single point]. For `CCC(=O)Nc1nc(C)c(-c2csc(Nc3cccc(O)c3)n2)s1`, the Potency was inconclusive: 14.6 µM [cytotoxic, partial curve]. In the case of `COc1ccc(S(=O)(=O)c2c(Nc3c(C)cccc3C)sc(C(=O)c3ccc(F)cc3)c2N)cc1`, the Potency was inconclusive: 6.51 µM [cytotoxic, full curve, poor fit]. With `COC(=O)c1ccccc1NC(=O)C1=CC(c2ccc3c(c2)OCO3)=NS(=O)(=O)N1C` the “activity change, negative = cytotoxicity” value was inactive: 9.06%. With `CCC(=O)Nc1sc(Cc2ccccc2)c(C)c1C(N)=O` the Potency was inconclusive: 14.6 µM [cytotoxic, partial curve]. For `CCc1ccc2oc(C(=O)Nc3ccccc3OC)cc(=O)c2c1`, the “activity change, negative = cytotoxicity” value was inactive: -0.925%. With `Cn1c2ccccc2c2cc(/C=N/NC(=O)c3ccccc3F)ccc21` the “activity change, negative = cytotoxicity” value was inactive: -0.605%. In the case of `Cc1sc2nc(C(C)C)nc(SCC(=O)NC3CC3)c2c1C`, the Potency was inconclusive: 0.92 µM [cytotoxic, full curve, poor fit]. With `Cc1ccc(SC[C@H](C)CN2CC[C@H](C)CCC2=O)cc1` the Potency was active: 18.4 µM. In the case of `O[C@@H]1[C@@H](O)C=C2CCN3Cc4cc5c(cc4[C@H]1C23)OCO5` (stereo not given in full), the Potency was active: 5.17 µM. With `COc1cccc(/C=C2\SC(=S)N(CCCC(=O)N(CCO)c3ccccc3)C2=O)c1` the Potency was inconclusive: 23.1 µM [cytotoxic, single point]. In the case of `COc1cc(C(=O)O)c2ccccc2n1`, the “activity change, negative = cytotoxicity” value was inactive: 1.84%. In the case of `COc1ccc(C2=CC(c3sccc3C)n3nnnc3N2)cc1` (stereo not given), the “activity change, negative = cytotoxicity” value was inactive: -5.67%. In the case of `O=C(c1ccc(-c2ccccc2Cl)o1)N1CCCCCCC1`, the Potency was inconclusive: 29.1 µM [cytotoxic, single point]. For `Cc1cc(Cl)ccc1OCC(=O)NNC(=O)C1CCN(c2ncnc3sc(C)c(C)c23)CC1`, the Potency was inconclusive: 18.4 µM [cytotoxic, single point]. With `Cc1ccccc1-n1c(-c2ccc(Cl)cc2)cnc1SCC(=O)NC1CCS(=O)(=O)C1` (stereo not given) the Potency was active: 18.4 µM. For `CCOC(=O)C1CCCN(S(=O)(=O)c2cc3[nH]c(=O)c(=O)[nH]c3cc2C)C1` (stereo not given), the Potency was inconclusive: 29.1 µM [rising, single point]. With `O=[n+]1c2c(n([O-])c3cc(F)c(F)cc31)CCCC2` the “activity change, negative = cytotoxicity” value was inactive: -2.51%. With `COc1ccccc1NCC(=O)N/N=C(\C)c1cccs1` the “activity change, negative = cytotoxicity” value was inactive: 2.97%. With `O=C(c1ccc(Cl)c(Cl)c1)N1CCC(=O)N(C(COCc2cccc(Cl)c2)Cc2ccccc2)CC1` (stereo not given) the “activity change, negative = cytotoxicity” value was inactive: -27.8%.
